## Primary screen of a compound library

The values are deposited in ChEMBL (CHEMBL3988442, “University of Dundee, Small-Polar-MMV Screening Library” (2021)).

Mtb cholesterol medium: 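Whole-cell growth test on Mycobacterium tuberculosis, read after 4 days in a medium based on cholesterol and the lipid DPPC; the read-out is not stated. Compounds at 50 µM. Direction is inferred from retests: higher values go with more growth inhibition. Size under these conditions: about 69,000 compounds, about 370 of them at 50% or above in at least one test.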
Mtb glucose medium: 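Growth of Mycobacterium tuberculosis over 3 days (7H9 medium with glucose and tyloxapol); the read-out is not stated. Concentration: 50 µM. Direction is inferred from retests: higher values go with more growth inhibition. Size under these conditions: about 69,000 compounds, about 760 of them at 50% or above in at least one test.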

Each number is a percent effect as filed. How 0% and 100% were set is not recorded. Most values in the screen are low, and negative values occur. The compounds are a random part of those screened. Two or more numbers in one place are separate tests of the same structure; such repeats can differ widely.

- CCN(CC)CCCC(C)NC(=O)c1cccnc1-n1cccn1 (configuration not stated) : Mtb cholesterol medium: -1.989%; Mtb glucose medium: 2.554% & 2.204%
- Cc1ccc(F)c(C(=O)Nc2c(C(N)=O)n[nH]c2C)c1 : Mtb cholesterol medium: -4.124%; Mtb glucose medium: 4.37%
- [H][C@]12CC[C@]([H])(CN(CC(=O)N(C)C)C1)N(Cc1ccc3nsnc3c1)C2 : Mtb cholesterol medium: -8.474% & -21.46%; Mtb glucose medium: -13.3%
- CCOc1cc(=O)n2c(c1C(=O)OCc1ccc(C)cc1)CCCC2 : Mtb cholesterol medium: 10.22%; Mtb glucose medium: -10.18%
- CCCc1cc(=O)n(CC(=O)NC(C)C)c(-n2nc(C)cc2C)n1 : Mtb cholesterol medium: -13.61%; Mtb glucose medium: 4.217%
- Cc1ccsc1C(=O)N(C)Cc1ccncc1 : Mtb cholesterol medium: -17.76%; Mtb glucose medium: 17.87%
- Cc1cc(C)n(CC2CCCN2C(=O)c2ccc3ccccc3n2)n1 (configuration not stated) : Mtb cholesterol medium: 10.87%; Mtb glucose medium: 18.07%
- CN(C)CCOCc1nnc2n1CCN(Cc1ccco1)CC2.O=C(O)C(F)(F)F.O=C(O)C(F)(F)F : Mtb cholesterol medium: -26.77%; Mtb glucose medium: -18.79%
- O=C(O)C(F)(F)F.[H][C@@]12CN(Cc3ccccn3)C[C@]1([H])CN(c1cc(OC)ncn1)C2 : Mtb cholesterol medium: -2.653%; Mtb glucose medium: -7.801%
- Cc1ccnn1CCC(=O)N1CCN(C2CCc3ccccc3C2)CC1 (configuration not stated) : Mtb cholesterol medium: 8.722% & -1.109%; Mtb glucose medium: 4.168% & 7.533%
- [H][C@@]12CCN(c3ncccn3)C[C@]1(C(=O)NCCc1ccccn1)CCO2 : Mtb cholesterol medium: 3.697%; Mtb glucose medium: 14.07%
- CC(=O)N1CCCC(c2nc(N(C)C)ncc2-c2ccccc2)C1 (configuration not stated) : Mtb cholesterol medium: -12.14%; Mtb glucose medium: 14.71%
- O=C(Nc1cc(CCC2CCN(CCO)CC2)ccn1)c1ccccn1 : Mtb cholesterol medium: -45.2% & -38.15%; Mtb glucose medium: -60.37%
- CNC(=O)C(C)(C)NC(=O)c1cc(OCC2CCC2)cc(C(=O)OC)c1 : Mtb cholesterol medium: -3.848%; Mtb glucose medium: -1.143% & -12.25%
- CCn1cc(CNC(=O)c2nn(CC)cc2Br)cn1 : Mtb cholesterol medium: 3.117%; Mtb glucose medium: -18.48%
- Cc1cnn(CCNCc2ccc(OCc3csc(C)n3)cc2)c1 : Mtb cholesterol medium: 15.88%; Mtb glucose medium: 20.12%
- CN(C)Cc1nnc2n1CCCN(C(=O)c1c[nH]cn1)C2 : Mtb cholesterol medium: -1.701% & 2.228%; Mtb glucose medium: 10.39% & -0.5998%
- O=C(NCCCNc1ccc(C(F)(F)F)cn1)c1ccc(F)cc1Br : Mtb cholesterol medium: 5.148%; Mtb glucose medium: -2.002%
- [H][C@@]12C[C@H](C(=O)NCc3ccccc3)[C@@]([H])(CN(S(=O)(=O)C3CC3)C1)O2 : Mtb cholesterol medium: -26.1%; Mtb glucose medium: -15.12%
- CCc1ncc(C(=O)N(C)CC2Cc3ccccc3O2)cn1 (configuration not stated) : Mtb cholesterol medium: -86.89%; Mtb glucose medium: 26.01%
- CN(CCC(=O)NC1CC1)Cc1ccc(Cl)s1 : Mtb cholesterol medium: -3.428%; Mtb glucose medium: 21.8%
- NC1(CN2CCOCC2)CCCCC1 : Mtb cholesterol medium: -0.3417%; Mtb glucose medium: 1.85%
- CCCc1ncc(C(=O)N2CCOC(c3nc(C)n[nH]3)C2)s1 (configuration not stated) : Mtb cholesterol medium: -3.251%; Mtb glucose medium: -14.1%
- O=C(c1cccc(S(=O)(=O)NCCCc2ccco2)c1)N1CCOCC1 : Mtb cholesterol medium: -19.61%; Mtb glucose medium: 2.605% & -31.15%

The first 3 entries again:

* CCN(CC)CCCC(C)NC(=O)c1cccnc1-n1cccn1 (configuration not stated) | Mtb cholesterol medium: -1.989%; Mtb glucose medium: 2.554% & 2.204%
* Cc1ccc(F)c(C(=O)Nc2c(C(N)=O)n[nH]c2C)c1 | Mtb cholesterol medium: -4.124%; Mtb glucose medium: 4.37%
* [H][C@]12CC[C@]([H])(CN(CC(=O)N(C)C)C1)N(Cc1ccc3nsnc3c1)C2 | Mtb cholesterol medium: -8.474% & -21.46%; Mtb glucose medium: -13.3%